Experimental data published in the RepoRT retention time repository (doi:10.1038/s41586-021-03707-9).

Experiment: Waters ACQUITY UPLC BEH C18, 100 × 2.1 mm, 1.7 µm, 40 °C, 0.28 mL/min, estimated dead time 0.63 min; A: water + 6.5 mM ammonium hydroxide; B: methanol + 6.5 mM ammonium hydroxide; gradient (min/%B) 0/0.5 4/70 4.5/98 5.4/98
Conditions: stereoisomer not certain

LC retention time: 1.31 min
Structure (SMILES): O=C(O)C(=O)Cc1ccc(O)cc1
